Results from patent US20090075941A1, “TREATING NEOPLASMS” (THE UAB RESEARCH FOUNDATION, priority 2006, published 2009).

System: MDA-MB-231 cells
Assay: Lucifer yellow uptake (hemichannel opening)
Type: cell-based, human
Conditions: short-term treatment (15 minutes, 10^−6 M)
Protocol: Lucifer yellow uptake. To investigate the possibility that bisphosphonate-induced hemichannel opening mediates the effects of these drugs also in breast cancer cells Lucifer yellow uptake was studied in MDA-MB-231 cells. […] The cells were first incubated in serum-free conditions with ethanol or heptanol for 15 minutes. After this, the treatments (vehicle, 5 mM EGTA, 10^−6 M alendronate or zoledronate) were added for further 15 minutes. Lucifer yellow (10 μg/ml) (Sigma) was added for the final 1 minute after which the cells were washed with serum-free media to close the hemichannels again and fixed with 3% PFA-PBS. The cells were then stained with Hoechst (Sigma, 1 mg-ml stock prepared in ethanol and used in 1:800 dilution in PBS) to visualize nuclei, as previously described in Selander et al. (1996) Mol. Pharmacol. 50, 1127-1138. Samples were viewed with fluorescent microscope to examine the uptake of Lucifer yellow.

NCCCC(O)(P(=O)(O)O)P(=O)(O)O [alendronate]
increased hemichannel-mediated cellular uptake of Lucifer yellow: not detected
